Reference: patent US20250152619A1, “POLYIMIDAZOLIUM-BASED CATIONIC ANTIMICROBIAL POLYMERS FOR NOVEL MASTITIS PROPHYLACTIC SOLUTIONS” (Nanyang Technological University, priority 2022, published 2025)
Some of these results come from one statement about several compounds together.

Assays:
Assay in all cases: BS EN 1656 bactericidal activity test in the presence of milk
Format in all cases: cell-based
Conditions in all cases: 0.5% w/v, within 10 minutes, 18% milk
[1] = tested on: E. coli ATCC 10536
[2] = tested on: S. uberis ATCC 19436
[3] = tested on: S. aureus ATCC 6538

Measured: log10 reduction

[H]/N=C(\N/C(=N/[H])NCCCCCCNC(=N)NC(=N)Nc1ccc(Cl)cc1)Nc1ccc(Cl)cc1 [chlorhexidine]
> 5 log10: all assays above
